Reference: PubChem BioAssay AID624297 (National Center for Advancing Translational Sciences (NCATS), 2012)
Out of some 340,000 compounds screened, about 6,200 (1.8%) were called active. This list was built around the results that the source calls inconclusive (neither active nor inactive); the mix of calls is not that of the screen. The call rests on the fitted dose curve; in most records, active means well fitted activation curve with a large enough effect; inconclusive means small, poorly fitted or top-dose-only effect; inactive means no such curve, though single readings can be large or run the other way. Where the call is inconclusive, the potency comes from a doubtful curve fit.

experiment: A quantitative high throughput screen for small molecules that induce DNA re-replication in SW480 colon adenocarcinoma cells.; further: nearly all actives have a fitted effect of over 55% in size; on re-replication activation: % of control where 0% means no effect; conditions: Hoechst DNA content imaging, 48 h; re-replication activation: at 46.1 µM (top of the series) unless noted
How it was run: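 Readout is total intensity of Hoechst-stained nuclei, excited at 405 nm and collected at 500-530 nm. Compound treatment lasted 48 hr at 37 C in 5% CO2 before staining.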
Potency means the concentration at half of the fitted maximal effect.

For `CCCS(=O)(=O)c1c(S(=O)(=O)CCC)c2c(C)cccn2c1C(=O)OC`, which Potency is on record?
Its Potency is inconclusive: 5.8 µM [activator, partial curve, poor fit].

Which Potency does the source give for `CN(CCOc1ccccc1)C(=O)C1CCC(=O)N(CCCN2CCOCC2)C1` (stereo not given) here?
The Potency was inconclusive: 0.0058 µM [activator, full curve, poor fit].

With `O=S(=O)(c1cc(F)ccc1F)N1CCN(c2ccccn2)CC1` as the compound, how does the Potency read?
The Potency was inconclusive: 18.4 µM [activator, single point].

For `COc1cccc(CN2CC(C(=O)NCCc3ccc(C)s3)CCC2=O)c1` (stereo not given), which Potency is on record?
Its Potency is “inactive”.

With `Cc1ccc(-c2cc(=O)[nH]c(NCc3ccccc3)n2)cc1` as the compound, how does the Potency read?
Its Potency is inconclusive: 13 µM [activator, partial curve, poor fit].

For `Cc1noc(C)c1C(=O)OCC(=O)c1c[nH]c2ccccc12`, which Potency is on record?
Its Potency is “inactive”.

Which Potency does the source give for `CC(C)c1nnc(NC(=O)c2c(O)c3cccc4c3n(c2=O)CCC4)s1` here?
The Potency was inconclusive: 25.9 µM [activator, single point].

With `Cc1ccc(NC(=O)C(C)N2C(=O)c3ccccc3C2=O)c(C)c1` (stereo not given) as the compound, how does the Potency read?
The Potency was “inactive”.

With `Cc1cccc(NC(=O)C2CCN(S(=O)(=O)c3c(C)noc3C)CC2)c1` as the compound, how does the Potency read?
Its Potency is inconclusive: 0.731 µM [activator, full curve, poor fit].

Which Potency does the source give for `Cc1nn(-c2ccccc2)c(N)c1N=Nc1cccc(S(=O)(=O)N2CCOCC2)c1` here?
The Potency was inconclusive: 29.1 µM [activator, single point].

Which Potency does the source give for `COCCOC(=O)c1[nH]c2c(c1C)C(=O)CC(c1cccs1)C2` (stereo not given) here?
The Potency was active: 2.59 µM.

Which Potency does the source give for `Cc1coc(NC(=O)CSc2nc(-c3ccncc3)cc(C(F)(F)F)c2C#N)n1` here?
Its Potency is inconclusive: 25.9 µM [activator, partial curve, poor fit].

Which Potency does the source give for `O=C(NNC(=O)c1ccc([N+](=O)[O-])cc1C(=O)O)c1ccncc1` here?
The Potency was “inactive”.

Which Potency does the source give for `Cc1cccc(N2CCN(C(=S)NCCc3ccccc3)CC2)c1C` here?
Its Potency is “inactive”.

For `COc1ccc(-c2oc3cc(OC(C)=O)cc(OC(C)=O)c3c(=O)c2OC)cc1`, which Potency is on record?
The Potency was inconclusive: 18.4 µM [activator, single point].

For `CCn1nc(C)cc1C(=O)N1CCc2c([nH]c3ccccc23)C1c1cc(F)ccc1F` (stereo not given), which Potency is on record?
Its Potency is inconclusive: 0.116 µM [activator, full curve, poor fit].

With `CCN1CCN(C(c2cccs2)C(C)NS(=O)(=O)c2ccc(C)cc2)CC1` (stereo not given) as the compound, how does the Potency read?
The Potency was inconclusive: 23.1 µM [activator, partial curve, poor fit].

Which Potency does the source give for `CCCCN1CNC(=S)N(c2ccccc2OCC)C1` here?
The Potency was “inactive”.

For `O=C(N/N=C\c1ccccc1OCc1ccccc1)c1ccco1`, which Potency is on record?
Its Potency is inconclusive: 23.1 µM [activator, single point].

For `COc1cccc(NC(=O)CSc2nc3ccccc3nc2N2CCCC2)c1`, which Potency is on record?
The Potency was inconclusive: 20.6 µM [activator, single point].

Which Potency does the source give for `Cc1cc(C(=O)Nc2sc3c(c2C#N)CCC3)no1` here?
The Potency was inconclusive: 23.1 µM [activator, single point].

Which Potency does the source give for `CCc1ccc(NC(=S)N(CCCN2CCOCC2)Cc2ccco2)cc1` here?
The Potency was inconclusive: 0.058 µM [activator, full curve, poor fit].

With `Cc1csc(NC(=O)c2ccc(Br)s2)n1` as the compound, how does the Potency read?
The Potency was inconclusive: 29.1 µM [activator, partial curve, poor fit].

For `CCOc1ccc(NC(=O)CN(C)C(=O)c2cccnc2Sc2ccc(Cl)cc2)cc1OCC`, which Potency is on record?
Its Potency is inconclusive: 4.61 µM [activator, partial curve, poor fit].

Which Potency does the source give for `Cc1ccc(S(=O)(=O)NCC(=O)Nc2ccc3c(c2)OCCO3)cc1` here?
Its Potency is inconclusive: 16.4 µM [activator, partial curve, poor fit].

With `Cc1occc1-c1nnc(SCC(=O)c2ccc(F)cc2)o1` as the compound, how does the Potency read?
The Potency was “inactive”.

For `CCOc1ccc(N(CC(=O)NCC2CCCO2)C(=O)CCC(=O)Nc2nccs2)cc1` (stereo not given), which Potency is on record?
Its Potency is “inactive”.

With `CC1(C)O[C@H]2C[C@@H]3[C@H]4CCC5=CC(=O)C=C[C@]5(C)[C@@]4(F)[C@@H](O)C[C@]3(C)[C@]2(C(=O)CO)O1` as the compound, how does the Potency read?
Its Potency is “inactive”.

For `Cc1cc(C)c(NC(=O)CN(C2CCCCC2)C2CCCCC2)c(C)c1`, which Potency is on record?
Its Potency is active: 1.84 µM.

Which Potency does the source give for `Cc1ccc(S(=O)(=O)NNC(=O)C(=O)NNc2ccccn2)cc1` here?
The Potency was “inactive”.

With `COc1ccc(NC(=O)CN2CCN(CC(=O)Nc3ccc(F)cc3F)CC2)cc1` as the compound, how does the Potency read?
The Potency was inconclusive: 2.31 µM [activator, single point].

For `Cc1nnc(N/N=C/c2cc([N+](=O)[O-])c(N3CCC(C)CC3)cc2N2CCC(C)CC2)n1N`, which Potency is on record?
The Potency was inconclusive: 18.4 µM [activator, single point].

With `c1ccc2c(c1)CCN(C1=Nc3cccc4cccc1c34)C2` as the compound, how does the Potency read?
The Potency was inconclusive: 29.1 µM [activator, single point].

For `CCC(=O)c1ccc(OCC(=O)OC(C)C(=O)Nc2c(C)n(C)n(-c3ccccc3)c2=O)cc1` (stereo not given), which Potency is on record?
Its Potency is inconclusive: 23.1 µM [activator, single point].

Which Potency does the source give for `CCOC(=O)c1cnn2cc(-c3[nH]ncc3[N+](=O)[O-])cnc12` here?
Its Potency is “inactive”.

For `COc1ccc(CC2(CO)CCN(CC3=Cc4cc(Cl)ccc4OC3)CC2)cc1`, which Potency is on record?
The Potency was inconclusive: 29.1 µM [activator, single point].

With `CCOc1cc(/C=C(\C#N)C(=O)Nc2cccc(C(=O)O)c2)cc(Br)c1OC(=O)c1ccc(OC)cc1` as the compound, how does the Potency read?
Its Potency is inconclusive: 29.1 µM [activator, single point].

With `Cc1ccc(C(=O)Nc2ccc(NC(=O)c3cccs3)cc2)cc1[N+](=O)[O-]` as the compound, how does the Potency read?
Its Potency is “inactive”.

For `COc1ccc(-c2ccc3c(c2)c(C#Cc2ccsc2)c(-c2cc(OC)cc(OC)c2)n3C)cc1`, which Potency is on record?
Its Potency is inconclusive: 29.1 µM [activator, single point].

For `CS(=O)(=O)N1CCc2cc(C(=O)N3CCN(c4cccc(Cl)c4)CC3)ccc21`, which Potency is on record?
Its Potency is “inactive”.

Which re-replication activation does the source give for `CCC(CC)CN1C(N(C)C)=NC[C@@H]1CC(C)C` here?
The re-replication activation was inactive: 1.54% [at 9.22 µM].

Which Potency does the source give for `Cc1onc(-c2ccccc2)c1C(=O)OCC(=O)NC(C)c1ccc(Cl)cc1` (stereo not given) here?
Its Potency is “inactive”.

For `Cc1cc(C)cc(Oc2ccccc2C=O)c1`, which Potency is on record?
Its Potency is inconclusive: 23.1 µM [activator, single point].

Which Potency does the source give for `COc1ccc(CCNC(=O)C23CCC(C)(C(=O)C2Br)C3(C)C)cc1OC` (stereo not given) here?
Its Potency is “inactive”.

Which Potency does the source give for `O=C(CSCc1nc2c(nnn2Cc2ccc(F)cc2)c(=O)[nH]1)Nc1cccc(C(F)(F)F)c1` here?
Its Potency is “inactive”.

For `COc1ccc(N2CCN(c3oc(Cc4cccc5ccccc45)nc3C#N)CC2)cc1`, which Potency is on record?
Its Potency is “inactive”.

Which Potency does the source give for `CCCCNc1c(-c2ccc(OC)c(SC(C)CC)c2)nc2cnccn12` (stereo not given) here?
The Potency was inconclusive: 29.1 µM [activator, partial curve, poor fit].

For `N#Cc1ccccc1NC(=O)CNc1cc(S(=O)(=O)N2CCOCC2)ccc1NCC1CCCO1` (stereo not given), which Potency is on record?
Its Potency is “inactive”.

Which Potency does the source give for `COc1cccc(CN2CC(C(=O)NC3CCC3)CCC2=O)c1` (stereo not given) here?
The Potency was “inactive”.

Which Potency does the source give for `CCOC(=O)N1CCN(C(=O)c2nn(-c3ccc(C)cc3)c(=O)c3c2c2ccccc2n3C)CC1` here?
The Potency was inconclusive: 18.4 µM [activator, single point].

For `Oc1ccc(C[C@@H]2CNCCN2CCc2cccc3ccccc23)cc1`, which Potency is on record?
Its Potency is inconclusive: 29.1 µM [activator, single point].

Which Potency does the source give for `CCN(CC)c1ccc2nc3ccccc3[n+](CC)c2c1` here?
Its Potency is active: 3.66 µM.

Which Potency does the source give for `Cc1ccc(NC(=O)c2ccc3nsnc3c2)c(C)c1` here?
Its Potency is inconclusive: 0.366 µM [activator, partial curve, poor fit].

For `O=C1OC(CN(Cc2ccccc2)Cc2ccccc2)CN1N=Cc1ccc([N+](=O)[O-])o1` (stereo not given), which Potency is on record?
Its Potency is inconclusive: 5.8 µM [activator, partial curve, poor fit].

With `O=S1(=O)NC(CC2=CCCCC2)C2CCCCC2O1` (stereo not given) as the compound, how does the Potency read?
The Potency was “inactive”.

For `CC(=O)N1CCCc2cc(S(=O)(=O)N3CCCC(C(=O)N4CCN(c5cccc(Cl)c5)CC4)C3)ccc21` (stereo not given), which Potency is on record?
The Potency was inconclusive: 20.6 µM [activator, partial curve, poor fit].

For `CC(=O)N1CCN(S(=O)(=O)c2ccc(C)cc2)C1C(C)C` (stereo not given), which Potency is on record?
The Potency was “inactive”.

Which re-replication activation does the source give for `COc1ccc(-c2nn3c(-c4ccc(F)cc4)nnc3s2)cc1` here?
The re-replication activation was inconclusive: 71.3% [activator].

Which Potency does the source give for `O=C(O)COCCN1CCN([C@@H](c2ccccc2)c2ccc(Cl)cc2)CC1` here?
Its Potency is “inactive”.

For `CN(C(=O)c1cccc(NC(=O)Cc2cccc(NC(=O)C3CCN(C(=O)CCc4ccccc4)CC3)c2)c1)C1CC1`, which Potency is on record?
Its Potency is “inactive”.

For `CN(CCC1CCOCC1)C(=O)C1CCC(=O)N(CCc2ccccc2)C1` (stereo not given), which Potency is on record?
The Potency was “inactive”.

With `CC(C)(C)NC(=O)CN(C(=O)c1ccc(CN2CCOCC2)o1)c1ccc2c(c1)OCCO2` as the compound, how does the Potency read?
Its Potency is “inactive”.

With `O=C(Cc1coc2ccc3ccccc3c12)NCc1ccccc1` as the compound, how does the Potency read?
Its Potency is inconclusive: 20.6 µM [activator, single point].

For `COc1ccc(CCNC(=O)Cc2cc(OC)c(OC)cc2Br)cc1OC`, which Potency is on record?
Its Potency is inconclusive: 7.31 µM [activator, partial curve, poor fit].

For `CCOc1ccc2nc(SCC(=O)NCC3CCCO3)c(C#N)cc2c1` (stereo not given), which Potency is on record?
The Potency was inconclusive: 16.4 µM [activator, single point].

Which Potency does the source give for `COCCCNc1c2c3c(cccc3[nH]c1=O)C(=O)c1ccccc1-2` here?
Its Potency is active: 18.4 µM.

With `Cc1ccc(NC(=O)Cc2nnc(SCC(=O)Nc3ccc(N4CCOCC4)cc3)n2C)cc1` as the compound, how does the Potency read?
The Potency was inconclusive: 11.6 µM [activator, single point].

For `CCOC(=O)c1nnc(-c2ccccc2)[nH]c1=O`, which Potency is on record?
The Potency was inconclusive: 18.4 µM [activator, single point].

With `Cc1ccc(S(=O)(=O)Nc2c(C)nn(C)c2C)c(C)c1` as the compound, how does the Potency read?
The Potency was inconclusive: 0.0046 µM [activator, full curve, poor fit].

For `CCCCN(CC(=O)Nc1c(C)cccc1CC)C(=O)SCC`, which re-replication activation is on record?
Its re-replication activation is inactive: 0.671% [at 9.22 µM].
